# Reference: the supplement of paper PMC12819154, “High-throughput peptide-centric local stability assay extends protein–ligand identification to membrane proteins, tissues and bacteria” (Nature Structural & Molecular Biology, 2025)
# The chains behind the UniProt entries cited, without tags or fusion partners. Where a name states a change or a piece, a line headed by the entry shows the natural chain unless it says otherwise.
# UniProt Q9NWZ8: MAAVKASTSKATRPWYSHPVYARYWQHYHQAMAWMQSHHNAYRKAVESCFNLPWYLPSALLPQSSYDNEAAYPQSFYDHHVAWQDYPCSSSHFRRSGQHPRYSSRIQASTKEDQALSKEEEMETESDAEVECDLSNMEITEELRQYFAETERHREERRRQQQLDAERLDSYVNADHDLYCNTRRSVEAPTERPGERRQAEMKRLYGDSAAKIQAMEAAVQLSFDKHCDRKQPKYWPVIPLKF
# UniProt Q9NQP4, whole entry: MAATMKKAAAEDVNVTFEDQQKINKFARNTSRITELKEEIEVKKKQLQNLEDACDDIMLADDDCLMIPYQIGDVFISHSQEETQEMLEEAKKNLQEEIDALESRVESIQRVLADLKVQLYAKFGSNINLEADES
# UniProt Q9NR45: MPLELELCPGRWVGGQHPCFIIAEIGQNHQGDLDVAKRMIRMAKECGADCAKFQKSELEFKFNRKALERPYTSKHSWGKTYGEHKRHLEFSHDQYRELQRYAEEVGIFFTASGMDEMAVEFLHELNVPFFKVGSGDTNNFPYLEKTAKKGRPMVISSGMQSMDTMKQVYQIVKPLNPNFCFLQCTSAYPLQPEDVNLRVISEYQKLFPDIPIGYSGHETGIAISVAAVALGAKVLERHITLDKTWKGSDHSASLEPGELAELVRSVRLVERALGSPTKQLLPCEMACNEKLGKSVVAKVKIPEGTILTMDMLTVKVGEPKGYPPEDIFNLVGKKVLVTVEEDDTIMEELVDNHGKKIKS
# UniProt Q9NRG7: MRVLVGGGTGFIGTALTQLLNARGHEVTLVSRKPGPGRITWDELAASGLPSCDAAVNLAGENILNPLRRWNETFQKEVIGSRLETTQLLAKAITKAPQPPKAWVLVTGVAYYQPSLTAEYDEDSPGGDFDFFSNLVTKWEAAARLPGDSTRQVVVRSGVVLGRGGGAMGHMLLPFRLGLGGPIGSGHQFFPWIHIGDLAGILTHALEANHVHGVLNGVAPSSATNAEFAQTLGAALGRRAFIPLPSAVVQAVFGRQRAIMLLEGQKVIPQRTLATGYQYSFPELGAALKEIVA
# UniProt Q9NS91, whole entry: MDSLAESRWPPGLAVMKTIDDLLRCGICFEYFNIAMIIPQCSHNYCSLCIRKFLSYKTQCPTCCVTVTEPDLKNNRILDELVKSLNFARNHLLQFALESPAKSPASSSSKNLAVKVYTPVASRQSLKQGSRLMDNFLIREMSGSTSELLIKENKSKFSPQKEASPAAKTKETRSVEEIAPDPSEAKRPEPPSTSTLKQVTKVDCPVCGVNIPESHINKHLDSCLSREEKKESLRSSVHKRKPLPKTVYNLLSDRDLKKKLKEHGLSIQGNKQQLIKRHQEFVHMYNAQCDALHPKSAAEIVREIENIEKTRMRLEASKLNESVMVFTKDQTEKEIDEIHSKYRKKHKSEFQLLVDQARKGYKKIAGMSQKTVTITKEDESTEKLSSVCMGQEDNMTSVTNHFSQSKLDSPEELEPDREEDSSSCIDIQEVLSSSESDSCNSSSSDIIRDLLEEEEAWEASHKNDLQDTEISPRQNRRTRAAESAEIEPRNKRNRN
# UniProt Q9NRM7: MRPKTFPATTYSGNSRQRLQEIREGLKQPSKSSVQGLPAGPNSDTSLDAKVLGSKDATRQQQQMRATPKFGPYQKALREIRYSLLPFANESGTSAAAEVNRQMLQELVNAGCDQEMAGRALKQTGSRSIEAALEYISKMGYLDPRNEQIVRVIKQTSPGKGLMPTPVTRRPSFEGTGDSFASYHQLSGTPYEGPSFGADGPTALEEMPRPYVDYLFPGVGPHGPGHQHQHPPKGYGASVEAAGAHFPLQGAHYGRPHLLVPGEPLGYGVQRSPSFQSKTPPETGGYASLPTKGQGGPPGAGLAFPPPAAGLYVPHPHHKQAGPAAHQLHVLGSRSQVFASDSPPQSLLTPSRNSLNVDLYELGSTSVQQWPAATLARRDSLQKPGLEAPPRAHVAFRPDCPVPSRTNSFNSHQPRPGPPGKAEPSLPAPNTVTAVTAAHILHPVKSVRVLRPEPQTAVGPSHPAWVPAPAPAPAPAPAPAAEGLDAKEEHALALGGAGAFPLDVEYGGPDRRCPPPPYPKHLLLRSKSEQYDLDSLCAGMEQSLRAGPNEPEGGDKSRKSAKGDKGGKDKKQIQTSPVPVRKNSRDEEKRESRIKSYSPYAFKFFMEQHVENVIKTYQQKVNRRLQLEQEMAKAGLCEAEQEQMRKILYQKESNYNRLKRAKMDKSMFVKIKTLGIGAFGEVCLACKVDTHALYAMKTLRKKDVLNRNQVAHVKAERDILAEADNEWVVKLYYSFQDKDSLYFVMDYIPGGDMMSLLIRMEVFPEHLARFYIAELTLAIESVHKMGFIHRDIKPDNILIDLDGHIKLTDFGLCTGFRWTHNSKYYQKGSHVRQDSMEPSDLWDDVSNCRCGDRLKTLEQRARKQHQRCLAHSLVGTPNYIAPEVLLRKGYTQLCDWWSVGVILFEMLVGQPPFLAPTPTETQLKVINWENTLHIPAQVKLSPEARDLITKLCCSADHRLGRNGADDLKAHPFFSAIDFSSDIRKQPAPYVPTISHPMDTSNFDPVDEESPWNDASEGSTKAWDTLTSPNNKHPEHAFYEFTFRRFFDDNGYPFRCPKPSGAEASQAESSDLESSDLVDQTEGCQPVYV
# UniProt Q9NWY4: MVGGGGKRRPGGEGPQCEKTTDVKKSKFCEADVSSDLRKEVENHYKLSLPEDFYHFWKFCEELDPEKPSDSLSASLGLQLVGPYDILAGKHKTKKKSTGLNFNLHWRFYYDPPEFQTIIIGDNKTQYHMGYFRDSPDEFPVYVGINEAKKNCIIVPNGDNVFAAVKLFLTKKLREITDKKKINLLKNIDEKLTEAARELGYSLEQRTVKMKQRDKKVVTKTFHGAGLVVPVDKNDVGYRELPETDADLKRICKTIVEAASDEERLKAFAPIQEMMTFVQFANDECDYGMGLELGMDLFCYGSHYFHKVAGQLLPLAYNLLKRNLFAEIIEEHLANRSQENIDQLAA
# UniProt Q9NV66: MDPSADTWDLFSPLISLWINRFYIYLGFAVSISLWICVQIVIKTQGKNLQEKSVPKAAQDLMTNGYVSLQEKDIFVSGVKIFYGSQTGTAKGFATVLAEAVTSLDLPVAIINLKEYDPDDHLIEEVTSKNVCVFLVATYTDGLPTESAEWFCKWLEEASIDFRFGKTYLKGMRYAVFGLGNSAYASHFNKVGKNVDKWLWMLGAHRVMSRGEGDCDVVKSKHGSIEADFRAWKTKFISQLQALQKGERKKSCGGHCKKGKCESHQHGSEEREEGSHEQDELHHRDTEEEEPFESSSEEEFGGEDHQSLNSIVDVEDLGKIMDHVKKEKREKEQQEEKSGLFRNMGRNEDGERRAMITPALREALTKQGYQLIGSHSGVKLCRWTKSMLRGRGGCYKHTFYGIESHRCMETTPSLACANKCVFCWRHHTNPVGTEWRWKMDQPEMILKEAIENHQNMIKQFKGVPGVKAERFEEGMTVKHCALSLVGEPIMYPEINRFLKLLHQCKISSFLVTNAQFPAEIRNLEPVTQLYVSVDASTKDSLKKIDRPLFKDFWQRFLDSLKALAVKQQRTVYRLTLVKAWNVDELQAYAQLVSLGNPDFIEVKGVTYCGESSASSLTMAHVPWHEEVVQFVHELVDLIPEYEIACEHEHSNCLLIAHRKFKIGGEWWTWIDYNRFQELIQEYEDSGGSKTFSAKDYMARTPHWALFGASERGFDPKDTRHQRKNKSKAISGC
# Some of the results follow. Most entries show no effect beyond the scatter of the controls.
# Compound: CN[C@@H]1C[C@H]2O[C@@](C)([C@@H]1OC)n1c3ccccc3c3c4c(c5c6ccccc6n2c5c31)C(=O)NC4 [staurosporine]
# Assay: log2 fold change of tryptic peptide abundance, ligand vs vehicle (limited proteolysis) (log2 ratio); higher = more trypsin-susceptible (destabilized)
# Conditions: ligand concentration: 20 uM; sample: K562 cleared lysate; digestion: 4 min, 22 C (HT-PELSA RT4min, Orbitrap Astral)
row,Target,log2 fold change
1,"GEMIN8 (peptide sequence: LDSYVNADHDLYCNTR, peptide start residue: 168) (UniProt Q9NWZ8)",-0.159
2,"PFDN4 (peptide sequence: ITELKEEIEVK, peptide start residue: 33) (UniProt Q9NQP4)",-0.25
3,"NANS (peptide sequence: IPEGTILTMDMLTVK, peptide start residue: 301) (UniProt Q9NR45)",0.545
4,"SDR39U1 (peptide sequence: GGGAMGHMLLPFR, peptide start residue: 164) (UniProt Q9NRG7)",0.142
5,"RAD18 (peptide sequence: SVEEIAPDPSEAKRPEPPSTSTLK, peptide start residue: 174) (UniProt Q9NS91)",-0.224
6,"LATS2 (peptide sequence: FFMEQHVENVIK, peptide start residue: 604) (UniProt Q9NRM7)",-0.558
7,"UniProt Q9NWY4 (peptide sequence: RPGGEGPQCEKTTDVK, peptide start residue: 9)",-0.348
8,"TYW1 (peptide sequence: QGYQLIGSHSGVK, peptide start residue: 367) (UniProt Q9NV66)",0.337
